Laboratory results: PubChem BioAssay AID504784 (Drosophila RNAi Screening Center, 2011)

- Purpose: 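Genome-wide knock-down for genes giving too much or too little stored lipid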 (primary screen)
- Cells: Drosophila Kc167 embryonic cells
- Reagents: long dsRNA against Drosophila genes, about 250 ng dsRNA per well
- Time to read-out: 4 days
- Conditions: cells fed 400 µM oleic acid bound to BSA
- Measured: 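Microscope images give a droplet-to-nucleus area ratio, taken as log and converted to a screen-wide B-score; higher values mean greater lipid storage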
- Direction: droplet/nuclear area B-score: higher = more stored lipid (overstorage)
The screen tested about 17,000 reagents; shown is an unselected part of those with a known target gene and a result. 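Each column is one replicate's B-score; the combined score over replicates was not deposited, so single values may mislead.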 Names joined by + are all predicted targets of the reagent. Not all columns of the deposit are shown. No sequences are given here.

| Target gene | amplicon | droplet/nuclear area B-score, replicate 1 |
| --- | --- | --- |
| Ir67b | DRSC09876 | -0.937 |
| pds5 | DRSC06670 | 0.0811 |
| CG5274 | DRSC11774 | -1.31 |
| CG8401 | DRSC07165 | 2.62 |
| CG18368 | DRSC06731 | -0.375 |
| Ccdc39 | DRSC12286 | 0.123 |
| CG9312 | DRSC16471 | 8.39 |
| Pex23 | DRSC10323 | -0.757 |
| Pex23 | DRSC10645 | -0.474 |
| mRF1 | DRSC02880 | -0.31 |
| Clp | DRSC00746 | -0.16 |
| Tim17a1 | DRSC14184 | 0.181 |
| Rpn13 | DRSC06379 | 0.614 |
| fat-spondin | DRSC07617 | 0.365 |
| Or49a | DRSC07493 | -1.1 |
| PIG-O | DRSC06123 | 0.21 |
| tna | DRSC10937 | -1.77 |
| tna | DRSC23236 | -0.702 |
| PGAP2 | DRSC00632 | 1.56 |
| CG34148 + P5CDh2 | DRSC13519 | 0.2 |
| CG18178 | DRSC10302 | 1.42 |
| wnd | DRSC11046 | -1 |
| wnd | DRSC21373 | -0.692 |
| Srrm234 | DRSC07955 | -0.0734 |
| Srrm234 | DRSC08606 | -0.0293 |
| Not3 | DRSC04908 | 4.86 |
| Mps1 | DRSC16273 | -1.96 |
| CG32121 | DRSC09265 | -2.14 |
| Npc2b | DRSC15464 | 0.0212 |
| Gp93 | DRSC15827 | 0.695 |
| wuc | DRSC06152 | -0.571 |
| alpha-Est10 | DRSC12613 | 0.000326 |
| e(y)3 | DRSC19450 | 0.0917 |
| shams | DRSC16590 | -1.11 |

An excerpt taken from the entries so far, as a working copy:
| Target gene | amplicon | droplet/nuclear area B-score, replicate 1 |
| --- | --- | --- |
| Or49a | DRSC07493 | -1.1 |
| PIG-O | DRSC06123 | 0.21 |
| tna | DRSC10937 | -1.77 |
| tna | DRSC23236 | -0.702 |
| PGAP2 | DRSC00632 | 1.56 |
| CG34148 + P5CDh2 | DRSC13519 | 0.2 |
